This is one part of the list.
What was measured:
Experiment in all cases: log2 fold change, soluble protein after heating vs DMSO (PISA); higher = thermal stabilisation; K562 lysate, 10 uM; active = over 0.2 and 3.5 SD of the protein, either way, in both replicates (recomputed)
[1] = compound: NCC(=O)Nc1ccc(-n2nc(C(F)(F)F)cc2-c2ccc3c(ccc4ccccc43)c2)cc1
Outline: (§1)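 Values give the log-two fold change in thermal stability against solvent controls, from duplicates. Crude K562 extract at 1 mg/mL protein, made by dounce homogenisation in PBS pH 7.4 with 1 mM MgCl2, was treated with 10 μM compound for 30 min. After 3 min heating across 48°C-58°C, aliquots were pooled, adjusted to 0.5% NP-40 at 4°C and centrifuged at 21,000xg for 90 min. The supernatant was measured by TMTpro 16plex LC-MS/MS with channel sums equalised.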

Sequences of proteins named here, by UniProt entry; tags and fusion partners are left off. A change or cut given only in a name is not applied to a line headed by its entry.
UniProt Q9UH17: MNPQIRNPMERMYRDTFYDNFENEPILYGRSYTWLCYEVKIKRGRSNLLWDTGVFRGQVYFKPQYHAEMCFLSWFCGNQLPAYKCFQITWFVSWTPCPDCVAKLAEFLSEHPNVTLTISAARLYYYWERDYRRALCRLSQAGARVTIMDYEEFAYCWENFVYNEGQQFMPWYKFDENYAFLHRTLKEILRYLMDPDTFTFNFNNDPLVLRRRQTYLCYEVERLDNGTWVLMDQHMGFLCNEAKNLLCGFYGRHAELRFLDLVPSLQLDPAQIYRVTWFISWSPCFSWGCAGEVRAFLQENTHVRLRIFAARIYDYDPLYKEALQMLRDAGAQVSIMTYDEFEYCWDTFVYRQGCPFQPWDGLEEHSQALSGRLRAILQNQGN
UniProt P07741: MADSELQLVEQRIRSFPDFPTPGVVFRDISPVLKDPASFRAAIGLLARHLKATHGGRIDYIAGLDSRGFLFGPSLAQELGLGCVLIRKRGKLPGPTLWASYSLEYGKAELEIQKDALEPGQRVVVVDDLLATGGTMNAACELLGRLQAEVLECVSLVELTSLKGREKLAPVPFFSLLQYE
UniProt Q9NVJ2: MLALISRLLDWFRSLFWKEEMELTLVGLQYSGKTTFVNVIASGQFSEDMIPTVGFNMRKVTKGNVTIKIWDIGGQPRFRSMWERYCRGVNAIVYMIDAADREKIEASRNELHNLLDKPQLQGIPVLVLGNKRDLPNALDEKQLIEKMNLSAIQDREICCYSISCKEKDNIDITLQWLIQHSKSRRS
UniProt Q14155: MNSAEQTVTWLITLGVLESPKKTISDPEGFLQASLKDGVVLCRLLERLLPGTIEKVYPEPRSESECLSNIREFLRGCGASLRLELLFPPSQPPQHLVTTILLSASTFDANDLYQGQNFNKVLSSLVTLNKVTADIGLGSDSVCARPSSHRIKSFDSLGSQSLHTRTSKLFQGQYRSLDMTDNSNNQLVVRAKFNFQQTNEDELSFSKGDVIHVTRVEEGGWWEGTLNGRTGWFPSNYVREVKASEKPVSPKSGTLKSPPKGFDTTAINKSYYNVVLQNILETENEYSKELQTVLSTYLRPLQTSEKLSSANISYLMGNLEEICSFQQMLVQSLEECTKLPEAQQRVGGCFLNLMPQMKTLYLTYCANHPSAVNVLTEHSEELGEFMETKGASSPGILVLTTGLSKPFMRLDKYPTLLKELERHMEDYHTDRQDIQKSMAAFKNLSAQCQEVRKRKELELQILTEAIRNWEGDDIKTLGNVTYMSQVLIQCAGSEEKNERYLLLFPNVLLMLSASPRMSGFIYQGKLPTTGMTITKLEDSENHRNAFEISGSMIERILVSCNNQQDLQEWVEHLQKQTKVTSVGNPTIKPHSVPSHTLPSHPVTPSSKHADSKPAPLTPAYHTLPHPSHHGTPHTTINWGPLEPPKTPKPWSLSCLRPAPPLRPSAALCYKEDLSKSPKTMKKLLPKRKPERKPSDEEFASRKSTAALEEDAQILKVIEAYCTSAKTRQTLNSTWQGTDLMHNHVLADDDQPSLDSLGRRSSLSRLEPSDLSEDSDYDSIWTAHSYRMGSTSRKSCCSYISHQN
UniProt Q9Y6D5: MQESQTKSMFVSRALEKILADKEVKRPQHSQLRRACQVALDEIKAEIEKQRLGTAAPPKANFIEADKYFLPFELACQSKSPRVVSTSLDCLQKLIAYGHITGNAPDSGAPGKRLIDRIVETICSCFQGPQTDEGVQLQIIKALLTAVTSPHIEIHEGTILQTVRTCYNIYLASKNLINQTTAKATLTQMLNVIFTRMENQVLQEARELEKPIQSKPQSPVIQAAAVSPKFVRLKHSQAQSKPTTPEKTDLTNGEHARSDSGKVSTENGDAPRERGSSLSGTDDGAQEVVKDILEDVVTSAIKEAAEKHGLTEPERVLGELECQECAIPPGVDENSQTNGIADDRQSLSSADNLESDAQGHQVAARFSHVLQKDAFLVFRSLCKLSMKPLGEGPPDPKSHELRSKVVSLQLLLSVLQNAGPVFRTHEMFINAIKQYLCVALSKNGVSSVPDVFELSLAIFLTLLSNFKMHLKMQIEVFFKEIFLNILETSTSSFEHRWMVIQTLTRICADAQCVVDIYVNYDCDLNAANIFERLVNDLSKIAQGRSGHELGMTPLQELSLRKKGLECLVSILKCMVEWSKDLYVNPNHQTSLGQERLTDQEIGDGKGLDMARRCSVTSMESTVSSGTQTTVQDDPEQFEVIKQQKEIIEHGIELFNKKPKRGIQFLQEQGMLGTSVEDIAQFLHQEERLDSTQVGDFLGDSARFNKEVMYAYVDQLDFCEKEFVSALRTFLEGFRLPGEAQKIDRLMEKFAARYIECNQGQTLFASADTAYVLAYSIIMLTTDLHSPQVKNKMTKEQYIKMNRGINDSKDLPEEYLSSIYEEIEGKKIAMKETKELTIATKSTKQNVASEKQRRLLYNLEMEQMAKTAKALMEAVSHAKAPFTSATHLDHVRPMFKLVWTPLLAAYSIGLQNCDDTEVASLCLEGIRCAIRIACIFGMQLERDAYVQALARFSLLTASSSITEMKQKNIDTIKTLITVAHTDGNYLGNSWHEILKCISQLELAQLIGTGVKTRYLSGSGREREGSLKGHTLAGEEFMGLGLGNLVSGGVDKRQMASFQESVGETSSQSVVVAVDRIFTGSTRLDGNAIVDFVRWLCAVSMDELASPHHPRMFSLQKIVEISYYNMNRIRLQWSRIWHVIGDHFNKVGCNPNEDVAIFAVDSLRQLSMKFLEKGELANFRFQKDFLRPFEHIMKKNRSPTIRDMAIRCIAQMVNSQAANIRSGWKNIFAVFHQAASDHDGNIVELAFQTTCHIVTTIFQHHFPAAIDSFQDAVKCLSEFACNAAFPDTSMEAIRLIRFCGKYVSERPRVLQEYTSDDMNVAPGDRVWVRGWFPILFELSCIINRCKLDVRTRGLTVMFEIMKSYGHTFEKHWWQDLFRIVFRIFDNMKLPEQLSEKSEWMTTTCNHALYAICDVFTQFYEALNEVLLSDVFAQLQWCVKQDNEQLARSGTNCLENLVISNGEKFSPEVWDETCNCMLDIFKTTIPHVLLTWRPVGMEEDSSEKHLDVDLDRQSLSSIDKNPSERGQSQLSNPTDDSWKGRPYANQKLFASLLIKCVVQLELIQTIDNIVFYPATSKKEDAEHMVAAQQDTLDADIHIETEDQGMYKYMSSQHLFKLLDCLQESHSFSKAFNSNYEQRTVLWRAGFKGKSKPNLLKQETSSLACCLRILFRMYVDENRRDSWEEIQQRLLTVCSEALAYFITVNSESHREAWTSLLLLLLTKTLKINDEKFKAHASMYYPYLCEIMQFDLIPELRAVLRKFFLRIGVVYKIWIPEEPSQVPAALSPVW
UniProt P53365: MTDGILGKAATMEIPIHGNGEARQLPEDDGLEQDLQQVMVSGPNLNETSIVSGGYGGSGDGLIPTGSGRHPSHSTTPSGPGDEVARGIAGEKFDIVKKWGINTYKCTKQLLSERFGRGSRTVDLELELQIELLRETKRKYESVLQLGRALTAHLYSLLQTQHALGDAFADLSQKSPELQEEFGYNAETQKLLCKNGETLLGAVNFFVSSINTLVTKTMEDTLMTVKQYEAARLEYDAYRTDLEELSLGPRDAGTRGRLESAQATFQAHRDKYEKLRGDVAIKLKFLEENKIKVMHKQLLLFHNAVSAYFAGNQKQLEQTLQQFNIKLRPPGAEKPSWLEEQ
UniProt Q9NXU5: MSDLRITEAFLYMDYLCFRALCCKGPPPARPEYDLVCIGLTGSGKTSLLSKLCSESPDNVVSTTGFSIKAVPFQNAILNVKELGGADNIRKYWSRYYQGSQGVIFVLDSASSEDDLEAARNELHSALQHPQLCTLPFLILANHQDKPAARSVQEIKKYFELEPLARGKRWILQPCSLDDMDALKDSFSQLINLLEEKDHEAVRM
UniProt Q92747, whole entry, looked up: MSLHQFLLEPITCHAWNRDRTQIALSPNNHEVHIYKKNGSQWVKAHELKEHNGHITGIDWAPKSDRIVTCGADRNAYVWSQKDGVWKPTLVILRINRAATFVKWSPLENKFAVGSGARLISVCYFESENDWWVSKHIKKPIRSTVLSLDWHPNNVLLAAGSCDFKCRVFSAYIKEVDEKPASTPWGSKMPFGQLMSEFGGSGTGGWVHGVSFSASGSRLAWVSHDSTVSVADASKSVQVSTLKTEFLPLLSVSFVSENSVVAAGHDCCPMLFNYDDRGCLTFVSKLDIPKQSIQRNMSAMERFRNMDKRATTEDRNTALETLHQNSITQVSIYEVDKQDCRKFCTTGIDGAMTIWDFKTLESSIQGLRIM
UniProt Q8IUR7, whole entry, looked up: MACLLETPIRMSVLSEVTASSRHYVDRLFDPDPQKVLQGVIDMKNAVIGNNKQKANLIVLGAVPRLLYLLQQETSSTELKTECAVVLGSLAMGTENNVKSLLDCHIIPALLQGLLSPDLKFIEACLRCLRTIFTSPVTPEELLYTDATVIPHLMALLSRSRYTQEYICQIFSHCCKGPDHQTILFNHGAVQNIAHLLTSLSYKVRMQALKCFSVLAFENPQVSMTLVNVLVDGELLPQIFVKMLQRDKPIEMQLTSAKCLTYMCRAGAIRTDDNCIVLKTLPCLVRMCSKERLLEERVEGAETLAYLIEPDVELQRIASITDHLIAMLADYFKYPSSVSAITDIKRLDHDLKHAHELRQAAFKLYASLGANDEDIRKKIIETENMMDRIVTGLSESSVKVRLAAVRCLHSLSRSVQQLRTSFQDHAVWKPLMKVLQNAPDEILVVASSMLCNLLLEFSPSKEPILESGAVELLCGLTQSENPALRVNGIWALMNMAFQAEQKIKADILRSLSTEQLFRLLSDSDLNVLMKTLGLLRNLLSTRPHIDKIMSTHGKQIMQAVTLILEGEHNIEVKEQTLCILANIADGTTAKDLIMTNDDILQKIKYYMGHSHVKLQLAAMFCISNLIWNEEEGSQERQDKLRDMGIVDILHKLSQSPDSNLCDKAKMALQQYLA
UniProt Q92619: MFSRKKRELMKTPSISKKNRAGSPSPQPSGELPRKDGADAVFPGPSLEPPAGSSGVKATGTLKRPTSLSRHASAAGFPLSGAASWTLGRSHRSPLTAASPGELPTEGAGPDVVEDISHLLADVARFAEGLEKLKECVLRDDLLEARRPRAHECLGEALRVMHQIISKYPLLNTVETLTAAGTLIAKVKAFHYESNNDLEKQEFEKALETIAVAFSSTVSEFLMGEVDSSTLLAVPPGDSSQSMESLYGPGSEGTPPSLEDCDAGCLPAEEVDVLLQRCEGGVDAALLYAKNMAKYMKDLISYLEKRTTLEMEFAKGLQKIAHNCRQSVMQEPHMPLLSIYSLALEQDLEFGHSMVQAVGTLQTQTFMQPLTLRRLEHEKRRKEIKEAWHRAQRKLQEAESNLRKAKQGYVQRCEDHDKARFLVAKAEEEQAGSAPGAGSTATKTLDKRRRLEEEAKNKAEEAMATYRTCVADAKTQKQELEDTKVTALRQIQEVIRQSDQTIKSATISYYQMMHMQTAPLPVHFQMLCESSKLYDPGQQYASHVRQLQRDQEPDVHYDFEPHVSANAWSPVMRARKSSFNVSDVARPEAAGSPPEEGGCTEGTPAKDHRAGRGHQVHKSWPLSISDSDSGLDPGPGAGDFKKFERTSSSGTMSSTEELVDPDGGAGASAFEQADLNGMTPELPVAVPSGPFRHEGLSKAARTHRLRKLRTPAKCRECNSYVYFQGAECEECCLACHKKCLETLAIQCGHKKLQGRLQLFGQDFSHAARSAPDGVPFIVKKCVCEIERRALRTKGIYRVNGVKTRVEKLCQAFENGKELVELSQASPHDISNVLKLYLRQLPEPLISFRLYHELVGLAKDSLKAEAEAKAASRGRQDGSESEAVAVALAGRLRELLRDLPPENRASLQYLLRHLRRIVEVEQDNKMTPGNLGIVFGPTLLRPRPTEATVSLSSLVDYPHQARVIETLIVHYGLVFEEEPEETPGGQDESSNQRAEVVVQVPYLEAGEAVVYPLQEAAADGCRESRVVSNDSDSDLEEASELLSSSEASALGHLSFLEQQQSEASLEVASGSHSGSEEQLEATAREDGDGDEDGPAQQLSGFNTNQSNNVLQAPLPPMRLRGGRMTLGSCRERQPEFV
UniProt P48444: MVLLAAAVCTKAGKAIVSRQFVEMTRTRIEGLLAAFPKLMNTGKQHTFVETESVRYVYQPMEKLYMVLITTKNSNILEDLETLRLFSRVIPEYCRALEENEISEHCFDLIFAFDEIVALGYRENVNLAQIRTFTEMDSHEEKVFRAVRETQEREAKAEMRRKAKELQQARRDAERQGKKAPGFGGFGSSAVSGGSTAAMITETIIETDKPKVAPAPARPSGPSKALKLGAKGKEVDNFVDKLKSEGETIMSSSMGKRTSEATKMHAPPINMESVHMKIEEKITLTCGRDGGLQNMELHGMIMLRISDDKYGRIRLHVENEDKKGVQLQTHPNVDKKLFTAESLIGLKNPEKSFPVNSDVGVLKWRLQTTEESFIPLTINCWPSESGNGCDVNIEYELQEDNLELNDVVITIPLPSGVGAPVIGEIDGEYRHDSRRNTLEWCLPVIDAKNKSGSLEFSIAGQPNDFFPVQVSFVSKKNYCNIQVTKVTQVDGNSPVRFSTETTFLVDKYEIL

[2] = compound: O=C(CCCCCCC(=O)Nc1ccccc1)NO [vorinostat]
Outline: as §1

[3] = compound: O=C(O)c1ccc2c(c1)nc(Nc1cccc(Cl)c1)c1ccncc12 [silmitasertib]
Outline: as §1

[4] = compound: O=C1NC(=O)C(c2cnc3ccccn23)=C1c1cn2c3c(cc(F)cc13)CN(C(=O)N1CCCCC1)CC2
Outline: as §1

[5] = compound: c1cn2cc(-c3ccc4cn[nH]c4c3)nc(Nc3ccc(N4CCOCC4)cc3)c2n1 [entospletinib]
Outline: as §1

Measured: log2 fold change

APOBEC3B (UniProt Q9UH17)
inactive: [1] -0.079 | [2] -0.006 | [3] -0.207 | [4] 0.15 | [5] 0.042

ARMC6 (UniProt Q6NXE6)
inactive: [1] -0.011 | [3] 0.02 | [4] -0.006 | [5] 0.011
active: [2] -0.422

ARMCX3 (UniProt Q9UH62)
inactive: [1] 0.042 | [3] 0.036 | [4] -0.024 | [5] 0.047
active: [2] -0.279

APRT (UniProt P07741)
inactive: [1] 0.001 | [2] 0.155 | [3] -0.007 | [4] 0.024 | [5] 0.02

APOA1 (UniProt P02647)
inactive: [1] -0.02 | [2] 0.002 | [3] -0.082 | [4] -0.155 | [5] 0.094

ARL8B (UniProt Q9NVJ2)
inactive: [1] -0.001 | [2] 0.102 | [3] 0.023 | [4] -0.014 | [5] -0.004

ARFGEF1 (UniProt Q9Y6D6)
inactive: [1] 0.012 | [2] -0.105 | [3] 0.022 | [4] 0.009 | [5] 0.02

ARHGEF7 isoform 5 (UniProt Q14155)
inactive: [1] 0 | [2] -0.159 | [3] 0.044 | [4] 0.017 | [5] 0.053

ARFGEF2 (UniProt Q9Y6D5)
inactive: [1] 0.068 | [2] -0.166 | [3] 0.002 | [4] 0.007 | [5] -0.001

Fetched one by one from above, 2 records:
ARFGEF1 (UniProt Q9Y6D6)
inactive: [1] 0.012 | [2] -0.105 | [3] 0.022 | [4] 0.009 | [5] 0.02

ARHGEF7 isoform 5 (UniProt Q14155)
inactive: [1] 0 | [2] -0.159 | [3] 0.044 | [4] 0.017 | [5] 0.053

(cont.)

APPL1 (UniProt Q9UKG1)
inactive: [1] 0.031 | [2] 0.016 | [3] 0.003 | [4] 0.015 | [5] 0.012

ARFIP2 (UniProt P53365)
inactive: [1] 0.014 | [2] -0.062 | [3] -0.031 | [4] -0.043 | [5] 0.032

AQR (UniProt O60306)
inactive: [1] 0.039 | [2] -0.125 | [3] 0.037 | [4] -0.004 | [5] 0.022

ARL15 (UniProt Q9NXU5)
inactive: [1] 0.007 | [2] -0.109 | [3] 0.016 | [4] -0.029 | [5] 0.014

ARHGEF6 (UniProt Q15052)
inactive: [1] 0.018 | [2] -0.268 | [3] -0.025 | [4] 0.001 | [5] 0.052

APPL2 isoform 3 (UniProt Q8NEU8)
inactive: [1] -0.105 | [2] -0.078 | [3] 0.036 | [4] -0.058 | [5] -0.007

ARVCF (UniProt O00192)
inactive: [1] 0.034 | [2] -0.209 | [3] 0.043 | [4] -0.051 | [5] -0.027

ARPC1A (UniProt Q92747)
inactive: [1] 0.024 | [2] 0.05 | [3] 0.006 | [4] 0.006 | [5] -0.002

ARMC8 (UniProt Q8IUR7)
inactive: [1] 0.01 | [2] -0.143 | [3] 0.017 | [4] 0.028 | [5] -0.012

ARHGAP45 isoform 2 (UniProt Q92619)
inactive: [1] -0.028 | [2] -0.093 | [3] -0.004 | [4] 0.048 | [5] -0.014

ARCN1 (UniProt P48444)
inactive: [1] -0.003 | [2] 0.074 | [3] 0.005 | [4] -0.019 | [5] 0.003

ARPC2 (UniProt O15144)
inactive: [1] 0.002 | [2] 0.136 | [3] -0.02 | [4] -0.03 | [5] 0.009

ARFIP1 (UniProt P53367)
inactive: [1] -0.001 | [2] -0.21 | [3] -0.014 | [4] -0.009 | [5] -0.001

APOE (UniProt P02649)
inactive: [1] -0.011 | [2] 0.096 | [3] 0.023 | [4] -0.063 | [5] 0.063

APOL2 (UniProt J3KQL8)
inactive: [1] 0.145 | [2] -0.042 | [3] 0.068 | [4] 0.052 | [5] -0.014

From the supplement of paper PMC10849652
